Where a name gives a salt, the structure may show the parent alone. Single values are uncertain, as repeats are few or missing.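 All cells are established human bladder cancer lines, one of them grown from a patient-derived xenograft. Viability was read by a luminescent ATP assay as percent inhibition versus vehicle over a seven-point dilution series; the paper calls scores above 59 very active, 30–59 active, 21–29 semi-active, 9–20 low active and below 9 inactive.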
Tests used:
Experiment in all cases: drug sensitivity score DSS3 (score 0-100); higher = more sensitive; extreme values may be limits of the assay
Settings in all cases: culture: 3D, ultra-low attachment; treatment time: 5 days
5637 = test system: 5637
BC8149 = test system: BC8149
J82 = test system: J82
SCaBER = test system: SCaBER
SW780 = test system: SW780
T-24 = test system: T-24
TCCSUP = test system: TCCSUP
UM-UC-12 = test system: UM-UC-12
UM-UC-14 = test system: UM-UC-14
UM-UC-15 = test system: UM-UC-15
UM-UC-17 = test system: UM-UC-17
UM-UC-18 = test system: UM-UC-18
UM-UC-1 = test system: UM-UC-1
UM-UC-5 = test system: UM-UC-5
UM-UC-6 = test system: UM-UC-6
UM-UC-9 = test system: UM-UC-9

Structure (SMILES) | drug sensitivity score DSS3 5637 | drug sensitivity score DSS3 (BC8149) | drug sensitivity score DSS3 (J82) | drug sensitivity score DSS3 (SCaBER) | drug sensitivity score DSS3 (SW780) | drug sensitivity score DSS3 (T-24) | drug sensitivity score DSS3 (TCCSUP) | drug sensitivity score DSS3 (UM-UC-12) | drug sensitivity score DSS3 (UM-UC-14) | drug sensitivity score DSS3 (UM-UC-15) | drug sensitivity score DSS3 (UM-UC-17) | drug sensitivity score DSS3 (UM-UC-18) | drug sensitivity score DSS3 (UM-UC-1) | drug sensitivity score DSS3 (UM-UC-5) | drug sensitivity score DSS3 (UM-UC-6) | drug sensitivity score DSS3 (UM-UC-9)
COc1ccccc1C(=O)Nc1cc2c(cc1N1CCCCC1)n(C)c(=O)n2C [GSK 5959] (max dose 10000 nM) | 0 | 0 | 0 | 0 | 0 | 0 | 0 | 0 | 0.216 | 1.68 | 0 | 0 | 0.0632 | 0 | 0 | 0.107
CC(C)(C)c1cc(C(=O)C(C#N)=NNc2cccc(Cl)c2)no1 [ESI-09] (max dose 10000 nM) | 0 | 0 | 0 | 0 | 0.0374 | 0 | 0.789 | 0.285 | 0 | 1.33 | 0.641 | 0 | 0.556 | 0 | 0.104 | 0.0969
Nc1ccc(S(=O)(=O)Nc2ccnn2-c2ccccc2)cc1 [Sulfaphenazole] (max dose 10000 nM) | 0 | 2.21 | 0 | 0.897 | 0 | 0 | 0.986 | 0 | 0.136 | 0 | 0 | 0 | 0 | 0 | 0 | 0
COc1cccc2c1C(=O)c1c(O)c3c(c(O)c1C2=O)C[C@@](O)(C(C)=O)C[C@@H]3O[C@H]1C[C@H](N)[C@H](O)[C@H](C)O1 [Daunorubicin HCl] (max dose 10000 nM) | 37.9 | 16.7 | 7.23 | 14.9 | 3.82 | 2.72 | 38.3 | 16.1 | 3.58 | 8.69 | 32.2 | 49.6 | 27.6 | 4.82 | 30.9 | 4.03
COc1cc(OC)cc(N(CCNC(C)C)c2ccc3ncc(-c4cnn(C)c4)nc3c2)c1 [erdafitinib] (max dose 10000 nM) | 0 | 3.45 | 0 | 0 | 0 | 0 | 11.3 | 0 | 0 | 19.2 | 0 | 0 | 0 | 0 | 0 | 0
COc1ccc(-c2cc3nccn3c(Nc3ncccc3C(N)=O)n2)cc1OC [BAY-61-3606] (max dose 10000 nM) | 0 | 0.0468 | 0 | 0 | 0 | 0 | 0.175 | 0 | 1.8 | 0 | 0 | 0 | 0.53 | 0.116 | 0 | 0
CC(C)Cn1cnc2c(N)nc3ccccc3c21 [Imiquimod] (max dose 10000 nM) | 0 | 1.02e-05 | 0 | 0 | 0 | 0 | 0 | 0 | 0 | 0 | 0 | 0.0815 | 0 | 0 | 0 | 0
COCC(=O)NC/C=C/c1ccc2ncnc(Nc3ccc(Oc4ccc(C)nc4)c(C)c3)c2c1 (max dose 10000 nM) | 0 | 0 | 0 | 0 | 0 | 0 | 0.0734 | 0 | 0 | 0 | 0 | 0.0488 | 0.813 | 0 | 0 | 0
COc1cc2c(cc1OC(C)C)[C@H](c1ccc(Cl)cc1)N(c1ccc(N(C)C[C@H]3CC[C@H](N4CCN(C)C(=O)C4)CC3)cc1)C(=O)C2 [NVP-CGM097] (max dose 10000 nM) | 0.929 | 0 | 0 | 1.48 | 0.121 | 0.678 | 0.155 | 4.86 | 0 | 0 | 0 | 0.0552 | 0 | 0 | 0 | 0
CC[C@H](C)n1cc(C)c2c(C(=O)NCc3c(C)cc(C)[nH]c3=O)cc(-c3ccc(N4CCNCC4)nc3)cc21 [GSK126] (max dose 10000 nM) | 0.224 | 0 | 0 | 0 | 0 | 0 | 0.809 | 0.436 | 0 | 0 | 0 | 0 | 0.00643 | 0 | 0 | 0
N#C/C(=C(/N)Sc1ccc(N)cc1)c1ccccc1C(F)(F)F [SL-327] (max dose 10000 nM) | 7.2e-07 | 0 | 0 | 0.0177 | 0 | 0 | 0 | 0 | 0 | 0 | 0 | 0 | 0 | 0 | 0 | 0
C[C@@H]1CCN(C(=O)CC#N)C[C@@H]1N(C)c1ncnc2[nH]ccc12 (max dose 10000 nM) | 0 | 0 | 0 | 0 | 0 | 0 | 0 | 0 | 0 | 0 | 0 | 0 | 0 | 0 | 0 | 0

Quoted from the listing.
N#C/C(=C(/N)Sc1ccc(N)cc1)c1ccccc1C(F)(F)F [SL-327] (max dose 10000 nM) | drug sensitivity score DSS3 (J82): 0
CC(C)Cn1cnc2c(N)nc3ccccc3c21 [Imiquimod] (max dose 10000 nM) | drug sensitivity score DSS3 (TCCSUP): 0

From the supplement of paper PMC7646827
